# Screen size: about 410,000 compounds; about 2,000 (0.49%) were called active. The shares of active, inactive and inconclusive entries below differ from those in the screen. Calls follow the shape of the full dose curve; tested in HEK293 reporter line. A potency beside an inconclusive call is a rough fit, not a confirmed value.
# Assay: qHTS Assay for Foot and Mouth Disease Virus Antivirals: Primary Screen against the MLPCN compound library; also: nearly all actives have a fitted effect of over 55% in size
# Conditions: FMDV antiviral cell-based qHTS; activity, negative = inhibition: at 57.9 µM (top of the series)
# Potency is read from the fitted curve at half-maximal effect.
Compound,Potency,"activity, negative = inhibition"
NC(=O)[C@@H]1CC2(CC(c3cccc(NC(=O)CC(c4ccccc4)c4ccccc4)c3)=NO2)CN1C(=O)COc1ccc(Cl)cc1 (stereo not given in full),inactive,–
Nc1nonc1C(=O)NCCNCc1ccc(Cl)c(Cl)c1,inactive,–
CC(C)(C)c1ccc(C(=O)O/N=C(\N)c2ccccn2)cc1,inactive,–
O=C(Nc1ccccc1)c1nc2ccccc2s1,"inconclusive: 3.55 µM [inhibitor, full curve]",–
Cc1ccccc1CN1CCc2c(OCC(=O)N3CCCc4ccccc43)cccc2C1=O,"inconclusive: 39.8 µM [inhibitor, single point]",–
O=C(Nc1ccc(Cc2ccncc2)cc1)C1CCC(N2C(=O)C3C4C=CC(C5CC45)C3C2=O)CC1 (stereo not given),"inconclusive: 14.1 µM [inhibitor, partial curve, poor fit]",–
CCOc1ccc(OCc2ccc(C(=O)OCc3ccccn3)o2)cc1,"inconclusive: 20 µM [inhibitor, single point]",–
COc1ccccc1CNc1cc(CSc2ccc(Cl)cc2)nc(C)n1,"inconclusive: 39.8 µM [inhibitor, partial curve, poor fit]",–
O=C(CCNS(=O)(=O)c1ccc(OC(F)(F)F)cc1)N1CCN(S(=O)(=O)c2cccc(F)c2)CC1,"inconclusive: 17.8 µM [inhibitor, partial curve, poor fit]",–
CCNC(=O)NC(=O)COC(=O)c1ccccc1SCC(=O)NC(=O)NCC,"inconclusive: 22.4 µM [inhibitor, single point]",–
COc1cc(Br)c(C(C)NC(=O)c2cccc(Br)c2)cc1OC (stereo not given),"inconclusive: 12.6 µM [inhibitor, partial curve]",–
COC(=O)c1ccc(NC(=O)COC(=O)c2cccc3c(=O)c(C)c(-c4ccccc4)oc23)cc1,"inconclusive: 11.2 µM [inhibitor, partial curve]",–
CC1(C)C2CCC(C2)C1(C)NC(=O)CNCc1cccs1 (stereo not given),"inconclusive: 7.94 µM [inhibitor, partial curve]",–
COc1ccccc1N1CCN(S(=O)(=O)c2cc(C(F)(F)F)cc(C(F)(F)F)c2)CC1,–,inconclusive: -34.4% [inhibitor]
CN(C)/C=C/C(=O)c1cccc(Oc2ncccn2)c1,inactive,–
Cc1onc(-c2ccccc2)c1C(=O)N(Cc1ccco1)Cc1cccs1,"inconclusive: 25.1 µM [inhibitor, single point]",–
COC(=O)c1ccc(Cn2cc(/C=C\[N+](=O)[O-])c3ccccc32)o1,"inconclusive: 39.8 µM [inhibitor, partial curve, poor fit]",–
O=C(CCSCc1ccccc1Cl)N1CCN(c2cccc(Cl)c2)CC1,"inconclusive: 22.4 µM [inhibitor, single point]",–
O=C1C=C(NC2=CC3OC(c4ccccc4)OCC3OC2=O)CCC1 (stereo not given),"inconclusive: 17.8 µM [inhibitor, partial curve, poor fit]",–
O=C(NNc1ccc([N+](=O)[O-])cc1[N+](=O)[O-])c1ccco1,"inconclusive: 20 µM [inhibitor, partial curve, poor fit]",–

Compound,Potency,"activity, negative = inhibition"
Cn1c(=O)[nH]c(=O)c2c1nc(N1CCCCC1)n2CCOc1ccccc1,inactive,–
COc1ccc(C(=O)/C=C/c2ccc(OC)c(CN3CCOCC3)c2)cc1,"inconclusive: 14.1 µM [inhibitor, partial curve, poor fit]",–
COc1cccc(-c2noc(C3CCCN(S(=O)(=O)c4cccc(Cl)c4C)C3)n2)c1 (stereo not given),"inconclusive: 17.8 µM [inhibitor, single point]",–
COc1ccccc1-c1nc(SCC(=O)NCc2ccco2)c2c(=O)n(C)c(=O)n(C)c2n1,"inconclusive: 10 µM [inhibitor, partial curve, poor fit]",–
C[C@@H]1C=CC(=O)O[C@@H]1c1ccc(Cl)cc1,"inconclusive: 28.2 µM [inhibitor, partial curve, poor fit]",–
COC(=O)c1nnn(-c2nonc2N)c1CSc1nc2ccccc2s1,inactive,–
COc1cc(Nc2c3ccccc3nc3ccccc23)cc(OC)c1OC,"inconclusive: 7.08 µM [inhibitor, partial curve, poor fit]",–
Cc1nn(Cc2ccc(Cl)cc2)c(C)c1NC(=O)c1noc2c1CCc1ccccc1-2,"inconclusive: 39.8 µM [inhibitor, partial curve, poor fit]",–
CCCCCCCCCc1ccc(OCCOCCO)cc1,"inconclusive: 11.2 µM [inhibitor, partial curve, poor fit]",–
NS(=O)(=O)c1ccc(CCNc2nn3c(-c4cccc(OC(F)(F)F)c4)cnc3s2)cc1,"inconclusive: 22.4 µM [inhibitor, partial curve, poor fit]",–
COc1ccc(C(=O)/C=C2/C(=O)Nc3ccccc32)cc1,"inconclusive: 3.16 µM [inhibitor, partial curve, poor fit]",–
COCC(C)N1C(=O)Cc2c1nc(N)c1c(N)nc(N3CCN(c4ccccc4F)CC3)c(C#N)c21 (stereo not given),"inconclusive: 31.6 µM [inhibitor, partial curve, poor fit]",–
COc1ccc(-c2cc(C(=O)NCCCN3CCOCC3)c3ccccc3n2)cc1OC,"inconclusive: 3.98 µM [inhibitor, partial curve, poor fit]",–
Cc1cc(NC(=O)c2ccc(S(=O)(=O)N3CCc4ccccc43)cc2)no1,inactive,–
C=CCn1c(O)c(N=NC(=S)Nc2ccccc2F)c2ccccc21,"inconclusive: 2.82 µM [inhibitor, full curve]",–
CCOc1ccc(S(=O)(=O)N2CCN(C(=O)c3cc(C4CC4)nn3-c3ccccc3)CC2)cc1,inactive,–
CC(C)(C)OC(=O)C[C@@H]1C/C=C\C[C@@H](CC(=O)N[C@@H](CO)Cc2ccccc2)C(=O)NC[C@@H](c2ccccc2)OC1=O,inactive,–
Cc1cc(Nc2sc(C(=O)c3ccc(F)cc3)c(N)c2C(=O)Nc2ccc(F)cc2)ccc1Cl,"inconclusive: 10 µM [inhibitor, partial curve, poor fit]",–
COCCN(CCOC)C(=O)COC(=O)c1ccc(Cl)c(S(=O)(=O)N(C)c2ccccc2)c1,"inconclusive: 11.2 µM [inhibitor, partial curve, poor fit]",–
COc1ccc(N2CCOCC2)c(NC(=O)c2cc3ccccc3o2)c1,inactive,–

# Some of the entries so far, as tab-separated lines:
Compound	Potency	activity, negative = inhibition
Nc1nonc1C(=O)NCCNCc1ccc(Cl)c(Cl)c1	inactive	–
COc1ccccc1N1CCN(S(=O)(=O)c2cc(C(F)(F)F)cc(C(F)(F)F)c2)CC1	–	inconclusive: -34.4% [inhibitor]
NS(=O)(=O)c1ccc(CCNc2nn3c(-c4cccc(OC(F)(F)F)c4)cnc3s2)cc1	inconclusive: 22.4 µM [inhibitor, partial curve, poor fit]	–
CCOc1ccc(S(=O)(=O)N2CCN(C(=O)c3cc(C4CC4)nn3-c3ccccc3)CC2)cc1	inactive	–
COCCN(CCOC)C(=O)COC(=O)c1ccc(Cl)c(S(=O)(=O)N(C)c2ccccc2)c1	inconclusive: 11.2 µM [inhibitor, partial curve, poor fit]	–

# More compounds follow.

Compound,Potency,"activity, negative = inhibition"
Cn1c(CCN2CCN(c3ccccn3)CC2)nc2cc(NC(=O)COc3ccc(Cl)cc3)ccc21,"inconclusive: 11.2 µM [inhibitor, partial curve, poor fit]",–
CC(OC(=O)C1CCN(S(=O)(=O)c2ccc(C(C)(C)C)cc2)CC1)C(=O)N(C)C1CCCCC1 (stereo not given),"inconclusive: 39.8 µM [inhibitor, partial curve, poor fit]",–
c1ccc(-c2nc3ccccn3c2-c2ccccc2)cc1,inactive,–
COc1cc(/C=C/C(=O)c2ccc3c(c2)OCCO3)cc(Br)c1OCC(=O)N(C)C,"inconclusive: 7.94 µM [inhibitor, full curve, poor fit]",–
[N-]=[N+]=CC(=O)C(Cc1ccccc1)N1C(=O)c2ccccc2C1=O (stereo not given),inactive,–
Cc1ccc2c(c1)N(CCC(=O)N1CCC3(CC1)OCCO3)C(=O)CO2,"inconclusive: 39.8 µM [inhibitor, partial curve, poor fit]",–
Cc1cccc(/C=N\NC(=O)c2csnn2)c1,"inconclusive: 39.8 µM [inhibitor, single point]",–
CCCn1c(=O)c2sccc2n2c(CCCC(=O)Nc3ccc(C)c(F)c3)nnc12,"inconclusive: 1.41 µM [inhibitor, full curve]",–
N#CC(Sc1ccccn1)c1ccc(Cl)cc1Cl (stereo not given),"inconclusive: 11.2 µM [inhibitor, partial curve]",–
C=CCC[C@H](Cc1ccc(F)cc1)C(=O)O[C@H](CNC(=O)[C@@H](CC=C)CC(=O)N(CCO)Cc1ccccc1)c1ccccc1,"inconclusive: 39.8 µM [inhibitor, partial curve, poor fit]",–
COc1cc(-c2noc(C)c2/C=C/c2cccc([N+](=O)[O-])c2)cc(OC)c1OC,"inconclusive: 7.08 µM [inhibitor, partial curve]",–
Cc1nc(NC(=O)/C=C/c2ccc(C(C)(C)C)cc2)sc1C(=O)N(C)C,inactive,–
Cc1ccc(S(=O)(=O)NCc2ccc(N3CCN(C(=O)OC(C)(C)C)CC3)cc2)cc1,"inconclusive: 28.2 µM [inhibitor, partial curve, poor fit]",–
COc1ccc(CCN(C)c2ncnc3sccc23)cc1OC,"inconclusive: 28.2 µM [inhibitor, partial curve, poor fit]",–
CC(=O)N1CCN(c2ccc(NC(=O)c3cccc(F)c3)cc2)CC1,inactive,–
O=S(=O)(c1ccc2c(c1)OCCO2)N1CCC(c2nc3ccc(Cl)cc3[nH]2)CC1,"inconclusive: 14.1 µM [inhibitor, partial curve, poor fit]",–
CCOc1ccc(N2C(=O)/C(=C/c3ccc(C)o3)C(=O)NC2=S)cc1,"inconclusive: 39.8 µM [inhibitor, partial curve, poor fit]",–
O=C(Nc1ccc2nc3n(c(=O)c2c1)CCCCC3)c1cc([N+](=O)[O-])ccc1F,"inconclusive: 31.6 µM [inhibitor, partial curve, poor fit]",–
COC(=O)Cc1ccc2sc(-c3ccccc3)nc2c1,"inconclusive: 14.1 µM [inhibitor, single point]",–
CC(=O)Oc1ccc(/C(C)=N/N2CCN(Cc3ccc(C)cc3)CC2)cc1,"inconclusive: 11.2 µM [inhibitor, partial curve, poor fit]",–

# From PubChem BioAssay AID1347131 (National Center for Advancing Translational Sciences (NCATS), 2019)
